Laboratory results as given in paper PMC7924746.
Results are given in words; binding and its absence hold for the method and conditions named. Binding seen in cells or lysates may run through a third protein. Some entries that bind do so weakly or less than the wild type.

Target: Flag-HA-tagged AGO1 (human) (UniProt Q9UL18)
Experiment: co-IP; anti-HA antibody on Protein-G Sepharose, FH-AGO1 or FH-EYFP precipitated from lysates (RIPA buffer: 50 mM Tris-HCl, 150 mM NaCl, 1% Triton X-100, 1 mM EDTA, pH 7.4) of unmodified or RanBP2-dE3 U2OS cells treated with 10 uM MG132 for 7 h; 2-3 h at 4 C; immunoblot for RanBP2

“Ran-binding protein 2 (RanBP2) (from UniProt P49792 1-3224)” was tested, and the binding was “binds”.
